Results on 78 substances are retold here after the supplement of paper PMC5949888.

Most values lie at the floor of the assay. Slopes are relative: functional sequences can read slightly below zero. A value given as a limit tells only on which side of the number the result lay.

For this data set, the system named is Saccharomyces cerevisiae PS128 hsf1 delta, HSF1(1-493) fusion. The data set is described as follows: growth estimate (transactivation domain function in HSF1 fusion, heat-shock survival) (a.u. (slope of normalised read count over time)); higher = stronger growth at 37°C, i.e. more transactivation activity. The following applies: library: random library.
For the substance SFEIAWQKVNPVGNLVLTSA, the growth estimate is less than -0.25.

Consider WTIALATARGGLLPARTRDT, for which the growth estimate was less than -0.25.

For NREGWQHSVLGVATLQGYRH, the growth estimate was less than -0.25.

Consider CISDDHVFHCVTSRGYVRGP, for which the growth estimate was less than -0.25.

As to RYFPAVD, the growth estimate was less than -0.25.

As to MYRPGAGHRQVILGIPIELV, the growth estimate is less than -0.25.

As to KLLMSSRLLGWPLTLCTVAR, the growth estimate was less than -0.25.

AVQGQEFCSRVCVVDQSTPT: the growth estimate is less than -0.25.

Consider YPLRPNDQGAFTWGLR, for which the growth estimate is less than -0.25.

With DILVTQRLSFNNTTDASYFC, the growth estimate was less than -0.25.

As to WIGVLLVGSNWPSFNRKV, the growth estimate is -0.245.

Regarding GADCIG, the growth estimate was -0.202.

In the case of GGLVVTGS, the growth estimate was less than -0.25.

Take SMYCRPTGVVVAGLRQDLLV: the growth estimate was less than -0.25.

For NGSK, the growth estimate was less than -0.25.

As for IWVSTMVSTGDRRF, the growth estimate is less than -0.25.

Consider GRLVGLYVETEYSLLCLVQR, for which the growth estimate was less than -0.25.

Take PAQSYHLRYAPEKSELFAGP: the growth estimate was less than -0.25.

Turning to PGEENHFCLWCWPVRRELRS, the growth estimate was less than -0.25.

For AMSVFERNDSYIFLAQSAMH, the growth estimate is less than -0.25.

LSSGGLCQRGAVTGRAARAA: the growth estimate is less than -0.25.

Take KMS: the growth estimate was less than -0.25.

For the substance DLWTQATQRYIRLVPSSVIF, the growth estimate was less than -0.25.

PVAEDDRQDGQISA: the growth estimate was less than -0.25.

With KGGG, the growth estimate is less than -0.25.

As to EGRLSTEGSSTHVAYTGLGL, the growth estimate was less than -0.25.

For the substance GAKEFNVRWRTRLSPRGTVE, the growth estimate was less than -0.25.

As for GPVTPTRHRKRCVVRTVCLS, the growth estimate is less than -0.25.

Take VPVSPYSWHLLR: the growth estimate was -0.219.

As to QLGPG, the growth estimate was less than -0.25.

As to RGALMQGSQSVFRRRVLTRM, the growth estimate is less than -0.25.

With RLYSEEIPFGEKGLHEVTTI, the growth estimate was less than -0.25.

For the substance SMHAAGAKRKRRCVMVFHGH, the growth estimate is less than -0.25.

YHNCPLTEGSQKVVSRASSS: the growth estimate is less than -0.25.

For the substance QESNILTRLHQLCFSDKTQI, the growth estimate is less than -0.253.

Regarding IDFVVLFV, the growth estimate is less than -0.25.

Consider FRLFSERRLMCWKVYFGDRL, for which the growth estimate was less than -0.25.

With IDASSKMQSLPHQLRYMA, the growth estimate is less than -0.25.

Take FMSSARTSGSEQWIQATRVR: the growth estimate was less than -0.25.

Turning to LLVSGK, the growth estimate is less than -0.25.

VLKGIRAAL: the growth estimate was less than -0.25.

Regarding CALF, the growth estimate is less than -0.25.

GPVQLERCIVMFWHYIILRP: the growth estimate was less than -0.25.

On to VGETGGSREVI, for which the growth estimate is -0.196.

With RSGPRDGRKLRRNSAQSDPS, the growth estimate was less than -0.25.

For the substance VNNADIIGRECDSTGQGSTR, the growth estimate was less than -0.25.

For EIRYSEMY, the growth estimate is -0.126.

As to TTGRSLVRATFVSS, the growth estimate is less than -0.25.

For the substance SMTIVSLRVANRPTTLICAT, the growth estimate was less than -0.25.

As to LGAW, the growth estimate is less than -0.25.

For the substance PGNL, the growth estimate was less than -0.25.

For SHMIPVIGVRYQIFIISGID, the growth estimate was -0.243.

For AWIRMVRALGPQGSMGRVPP, the growth estimate is less than -0.25.

Turning to TFAA, the growth estimate is -0.245.

Consider ANRFISSY, for which the growth estimate was less than -0.25.

Regarding HFLFNSGRGNR, the growth estimate is less than -0.25.

Turning to RIQSYWVGSGTGPCEADTGV, the growth estimate is less than -0.25.

With DIQLRSRPDLKSFSPPHPAS, the growth estimate is less than -0.25.

With VWLGVYEHSSLAR, the growth estimate is less than -0.25.

With AERRWICGA, the growth estimate was less than -0.25.

In the case of MDEARKDASFMEADSVGQLY, the growth estimate is less than -0.25.

Consider IARGAIFN, for which the growth estimate was less than -0.25.

As to GHIKLTLRAGE, the growth estimate was less than -0.25.

For RPSVRCGSNESRFGGVKIHP, the growth estimate was -0.231.

Turning to YDWCALQT, the growth estimate is 0.207.

As for YDLQMSSMQPVWWTRTLVGL, the growth estimate is less than -0.25.

PIDSDS: the growth estimate is less than -0.25.

For the substance ASACPVSLIGRRHPRRQSNR, the growth estimate is less than -0.25.

Take TGMRYTWAFRLSGSVVPTSV: the growth estimate was less than -0.25.

Consider SQLFIRCSERLL, for which the growth estimate is less than -0.25.

Regarding SCTNATVCRRGPVPTQYCIS, the growth estimate is less than -0.25.

As for SKVGVIQYYSVPGTICNQAT, the growth estimate is less than -0.25.

As for TRKGCFETALFSIGGNPANQ, the growth estimate is less than -0.25.

On to KSLFVVLPAQAGDCEISERS, for which the growth estimate was less than -0.25.

As to RVGHIPGSSAVGAYRVYVMI, the growth estimate was less than -0.25.

Take NQTRTVHTSLLE: the growth estimate was less than -0.25.

As to WQHESLTRVVRYRV, the growth estimate was less than -0.25.

For the substance RTPGLAAGHRGFRP, the growth estimate is less than -0.25.
